The list is a part of this screen's results and no random one: it gathers some chemical classes. Other doses and runs of a compound may be missing. T/C is the treated group as % of the vehicle group. Where survival is the endpoint, the PubChem record calls one and a half times the control and up active, and a quarter to a half above the control has no call in these data; cut-offs in other NCI protocols can differ. Some T/C values are marked as having no survivor count here; that says nothing about deaths at the dose. Schedule codes are those of the source, read here as Q, the interval in days (D) or hours (H), X, the number of doses. Some entries were tested several times; the values are given in rising order. Some schedules carry Z or #; the key to these is not given.
Test system: L1210 leukemia ip in BDF1 mice, survival T/C
Assay: NCI In Vivo Anticancer Drug Screen. Data for tumor model L1210 Leukemia (intraperitoneal) in B6D2F1 (BDF1) mice
Settings: T/C endpoint: mean survival time, higher T/C = longer survival
[1] = dose: 100.0 mg/kg/injection, schedule: Q01DX001 (ip), vehicle: saline
[2] = dose: 200.0 mg/kg/injection, schedule: Q01DX001 (ip), vehicle: saline

## ClCCN1CCN(CCCl)CC1
dose: 0.25 mg/kg/injection, schedule: Q01DX009 (ip), vehicle: saline
  T/C: 105 % of control [survivor count not shown]
dose: 0.25 mg/kg/injection, schedule: Q04DX003 (ip), vehicle: saline
  T/C: 110 % of control [survivor count not shown]
dose: 0.5 mg/kg/injection, schedule: Q01DX009 (ip), vehicle: saline
  T/C: 95 % of control [survivor count not shown]
dose: 0.5 mg/kg/injection, schedule: Q04DX003 (ip), vehicle: saline
  T/C: 103 [survivor count not shown], 115 [survivor count not shown], 116 % of control [survivor count not shown]
dose: 1.0 mg/kg/injection, schedule: Q04DX003 (ip), vehicle: saline
  T/C: 127 [survivor count not shown], 130 [survivor count not shown], 137 % of control [survivor count not shown]
dose: 2.0 mg/kg/injection, schedule: Q01DX009 (ip), vehicle: saline
  T/C: 102 % of control [survivor count not shown]
dose: 2.0 mg/kg/injection, schedule: Q04DX003 (ip), vehicle: saline
  T/C: 127 [survivor count not shown] and 130 % of control [survivor count not shown]
dose: 4.0 mg/kg/injection, schedule: Q04DX003 (ip), vehicle: saline
  T/C: 103 % of control [survivor count not shown]

## CCC(C)NN(CCCl)CCCl (stereo not given)
dose: 50.0 mg/kg/injection, schedule: Q01DX001 (ip), vehicle: saline
  T/C: 108 % of control [survivor count not shown]
[1]
  T/C: 135 % of control [survivor count not shown]
[2]
  T/C: 152 % of control [survivor count not shown]

## CCOC(=O)CNC(=O)C[N+](C)(CCCl)CCCl
dose: 2.5 mg/kg/injection, schedule: Q01DX Z (ip), vehicle: saline
  T/C: 107 % of control [survivor count not shown]
dose: 5.0 mg/kg/injection, schedule: Q01DX Z (ip), vehicle: saline
  T/C: 102 % of control [survivor count not shown]
dose: 10.0 mg/kg/injection, schedule: Q01DX Z (ip), vehicle: saline
  T/C: 93 [survivor count not shown] and 111 % of control [survivor count not shown]
dose: 20.0 mg/kg/injection, schedule: Q01DX Z (ip), vehicle: saline
  T/C: 96 % of control [survivor count not shown]
dose: 40.0 mg/kg/injection, schedule: Q01DX Z (ip), vehicle: saline
  T/C: 114 % of control [survivor count not shown]
[1]
  T/C: 109 % of control [survivor count not shown]
[2]
  T/C: 107 % of control [survivor count not shown]
dose: 400.0 mg/kg/injection, schedule: Q01DX001 (ip), vehicle: saline
  T/C: 106 % of control [survivor count not shown]

## Cc1ccc2nc(CN(CCCl)CCCl)[nH]c2c1
dose: 8.0 mg/kg/injection, schedule: Q01DX Z (ip), vehicle: methylcellulose (MC)
  T/C: 98 % of control [survivor count not shown]
dose: 11.0 mg/kg/injection, schedule: Q04DX003 (ip), vehicle: saline sonified
  T/C: 105 % of control [survivor count not shown]
dose: 12.0 mg/kg/injection, schedule: Q01DX Z (ip), vehicle: methylcellulose (MC)
  T/C: 105 % of control [survivor count not shown]
dose: 16.5 mg/kg/injection, schedule: Q04DX003 (ip), vehicle: saline sonified
  T/C: 130 % of control [survivor count not shown]
dose: 18.0 mg/kg/injection, schedule: Q01DX Z (ip), vehicle: methylcellulose (MC)
  T/C: 116 % of control [survivor count not shown]
dose: 25.0 mg/kg/injection, schedule: Q04DX003 (ip), vehicle: Klucel (hydroxypropylcellulose) (HPC)
  T/C: 126 % of control [survivor count not shown]
dose: 25.0 mg/kg/injection, schedule: Q04DX003 (ip), vehicle: saline sonified
  T/C: 110 % of control [survivor count not shown]
dose: 27.0 mg/kg/injection, schedule: Q01DX Z (ip), vehicle: methylcellulose (MC)
  T/C: 127 % of control [survivor count not shown]

## O=C(O)C(=O)Cc1ccc(N(CCCl)CCCl)cc1
dose: 2.0 mg/kg/injection, schedule: Q01DX Z (ip), vehicle: methylcellulose (MC)
  T/C: 125 % of control [survivor count not shown]
dose: 3.0 mg/kg/injection, schedule: Q01DX Z (ip), vehicle: methylcellulose (MC)
  T/C: 137 % of control [survivor count not shown]
dose: 4.4 mg/kg/injection, schedule: Q01DX Z (ip), vehicle: methylcellulose (MC)
  T/C: 145 [survivor count not shown] and 154 % of control [survivor count not shown]
dose: 6.0 mg/kg/injection, schedule: Q01DX Z (ip), vehicle: methylcellulose (MC)
  T/C: 101 [survivor count not shown] and 134 % of control [survivor count not shown]
dose: 6.6 mg/kg/injection, schedule: Q01DX Z (ip), vehicle: methylcellulose (MC)
  T/C: 122 [survivor count not shown] and 129 % of control [survivor count not shown]
dose: 10.0 mg/kg/injection, schedule: Q01DX Z (ip), vehicle: methylcellulose (MC)
  T/C: 108 [survivor count not shown], 156 [survivor count not shown], 162 % of control [survivor count not shown]
dose: 11.0 mg/kg/injection, schedule: Q01DX Z (ip), vehicle: methylcellulose (MC)
  T/C: 129 [survivor count not shown] and 175 % of control [survivor count not shown]
dose: 15.0 mg/kg/injection, schedule: Q01DX Z (ip), vehicle: methylcellulose (MC)
  T/C: 98 [survivor count not shown], 141 [survivor count not shown], 190 % of control [survivor count not shown]
dose: 16.0 mg/kg/injection, schedule: Q01DX Z (ip), vehicle: methylcellulose (MC)
  T/C: 111 [survivor count not shown] and 137 % of control [survivor count not shown]
dose: 22.0 mg/kg/injection, schedule: Q01DX Z (ip), vehicle: methylcellulose (MC)
  T/C: 96 [survivor count not shown] and 102 % of control [survivor count not shown]
dose: 24.0 mg/kg/injection, schedule: Q01DX Z (ip), vehicle: methylcellulose (MC)
  T/C: 112 % of control [survivor count not shown]

## CC1CCC(N(CCCl)CCCl)CC1 (stereo not given)
dose: 1.3 mg/kg/injection, schedule: Q01DX001 (ip), vehicle: saline
  T/C: 106 % of control [survivor count not shown]
dose: 2.0 mg/kg/injection, schedule: Q01DX001 (ip), vehicle: saline
  T/C: 110 % of control [survivor count not shown]
dose: 3.0 mg/kg/injection, schedule: Q01DX001 (ip), vehicle: saline
  T/C: 115 % of control [survivor count not shown]
dose: 4.4 mg/kg/injection, schedule: Q01DX001 (ip), vehicle: saline
  T/C: 120 % of control [survivor count not shown]
dose: 6.7 mg/kg/injection, schedule: Q01DX001 (ip), vehicle: saline
  T/C: 122 % of control [survivor count not shown]
dose: 10.0 mg/kg/injection, schedule: Q01DX001 (ip), vehicle: saline
  T/C: 121 % of control [survivor count not shown]
dose: 15.0 mg/kg/injection, schedule: Q01DX001 (ip), vehicle: saline
  T/C: 106 % of control [survivor count not shown]

## COP(=O)(O)N(CCCl)CCCl.NC1CCCCC1
dose: 62.5 mg/kg/injection, schedule: Q01DX010 (ip), vehicle: saline
  T/C: 98 % of control [survivor count not shown]
dose: 125.0 mg/kg/injection, schedule: Q01DX010 (ip), vehicle: saline
  T/C: 113 % of control [survivor count not shown]
dose: 250.0 mg/kg/injection, schedule: Q01DX010 (ip), vehicle: saline
  T/C: 129 % of control [survivor count not shown]
dose: 500.0 mg/kg/injection, schedule: Q01DX Z (ip), vehicle: saline
  T/C: 140 % of control [survivor count not shown]
dose: 750.0 mg/kg/injection, schedule: Q01DX Z (ip), vehicle: saline
  T/C: 124 % of control [survivor count not shown]
